# Assay results: the supplement of paper PMC9135407
# Values joined by “and” are separate entries in the source; they are usually repeats but may differ in a detail not shown here. Identical values can stand only once. Counter-ions that a name gives are not always drawn. ± gives the standard deviation of the averaged measurements. This is one part of the list. Part of the spread comes from offsets between plates or batches.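 Assay uses culture-activated primary human stellate myofibroblasts; lipid droplet recovery indicates inactivation. Measured: proportion of Hoechst-counted cells over a plate-specific Bodipy cutoff, duplicate wells, DMSO and nortriptyline as per-plate negative and positive controls. A hit scores, control-normalized, above the plate's top-tenth-percentile nortriptyline wells or ranks among its three best wells. Final well concentrations not reported.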
# Test system: primary human hepatic stellate cells (donor 1)
# Test: percent Bodipy-positive cells; higher = more lipid droplet accumulation
# Conditions: 48 h
# [1] = library stock concentration: 3.33 mM
# [2] = library stock concentration: 10 mM
# [3] = library stock concentration: 1 mM
compound,measurement,setting,value
CC(C)NC[C@H](O)COc1ccc(CCOCC2CC2)cc1 [Levobetaxolol HCl],percent Bodipy-positive cells,[1],13.9 ± 1.1%
same,percent Bodipy-positive cells,[2],68.1 ± 23%
CCOC(=O)c1c(Cc2cccc(Cl)c2)[nH]c2c1cc(O)c1ccccc12,percent Bodipy-positive cells,[3],10.9 ± 1.1%
COC(=O)C1=C(C)NC(C)=C(C(=O)OC)C1c1ccccc1[N+](=O)[O-],percent Bodipy-positive cells,[2],22.4 ± 3.1%
COC(=O)C1=C(C)NC(C)=C(C(=O)OC)C1c1ccccc1[N+](=O)[O-] [Nifedipine],percent Bodipy-positive cells,,36.5 ± 5.4%
same,percent Bodipy-positive cells,[1],7.52 ± 1%
same,percent Bodipy-positive cells,library stock concentration: 5.8 mM,11.2% and 4.03%
Nc1[nH]nc2nc3ccccc3nc12,percent Bodipy-positive cells,[2],7.61 ± 2.5%
COc1cc2c(CCNC(C)=O)c[nH]c2cc1O [6-Hydroxymelatonin],percent Bodipy-positive cells,[2],50 ± 1.9%
O=C1CC[C@@H](C(=O)O)N1,percent Bodipy-positive cells,[2],40.8 ± 16%
CO[C@@]1(NC(=O)C(C(=O)O)c2ccc(O)cc2)C(=O)N2C(C(=O)O)=C(CSc3nnnn3C)CO[C@@H]21 (some centres undefined) [Moxalactam disodium],percent Bodipy-positive cells,library stock concentration: 3.5 mM,2.98 ± 0.82%
same,percent Bodipy-positive cells,[2],9.81 ± 0.72%
CO[C@@]1(NC(=O)C(C(=O)O)c2ccc(O)cc2)C(=O)N2C(C(=O)O)=C(CSc3nnnn3C)CO[C@@H]21 (some centres undefined) [Moxalactam disodium salt],percent Bodipy-positive cells,,11.3 ± 3.5%
C=CCc1cc(OC)c(O)c(C(=O)NCCO)c1 [Alibendol],percent Bodipy-positive cells,[1],10.5 ± 0.81%
same,percent Bodipy-positive cells,[2],18.2 ± 1%
CN(CCc1ccc(Cl)c(Cl)c1)CC(O)COc1ccc(NS(C)(=O)=O)cc1 (centres undefined),percent Bodipy-positive cells,[2],44.9 ± 10%
NC(=O)c1ccc2nc(-c3ccc(Oc4ccc(Cl)cc4)cc3)[nH]c2c1 [Chk2 Inhibitor II],percent Bodipy-positive cells,[1],10 ± 1.8%
COc1ccc([C@@H]2CNC(=O)C2)cc1OC1CCCC1 [(R)-(-)-Rolipram],percent Bodipy-positive cells,[2],9.35 ± 1.6%
COc1ccccc1OCCNCC(O)COc1cccc2[nH]c3ccccc3c12 (centres undefined) [Carvedilol],percent Bodipy-positive cells,[2],75.4 ± 0.89%
Nc1ccc(S(=O)(=O)Nc2ncccn2)cc1 [Sulfadiazine],percent Bodipy-positive cells,,49.6 ± 36%
same,percent Bodipy-positive cells,[1],8.36 ± 4.6%
same,percent Bodipy-positive cells,library stock concentration: 8 mM,4.62% and 14.4%
same,percent Bodipy-positive cells,[2],13.5% and 14.4%
CCCC(C)NC(=O)c1ccc(Cl)c(Cl)c1 (centres undefined),percent Bodipy-positive cells,[1],30.9 ± 3.9%
same,percent Bodipy-positive cells,[2],35.1 ± 10%
O=C(Nc1ccc(Cl)cc1)c1ccccc1NCc1ccncc1 [VEGF Receptor Tyrosine Kinase Inhibitor II],percent Bodipy-positive cells,[1],13.9 ± 7.4%
CC(C)[C@H](C(=O)Nc1ccc(C(=O)NO)cc1)c1ccccc1,percent Bodipy-positive cells,[3],46.5 ± 3.5%
same,percent Bodipy-positive cells,[1],62.25 ± 0.18%
same,percent Bodipy-positive cells,[2],66.1 ± 1%
C#C[C@]1(OC(C)=O)CC[C@H]2[C@@H]3CCC4=C[C@@H](OC(C)=O)CC[C@@H]4[C@H]3CC[C@@]21C [Ethynodiol diacetate],percent Bodipy-positive cells,,10 ± 1.7%
same,percent Bodipy-positive cells,[1],11.8 ± 1.3%
same,percent Bodipy-positive cells,library stock concentration: 5.2 mM,11.4 ± 5.4%
same,percent Bodipy-positive cells,[2],42.1 ± 19%
N[C@H]1CCN(O)C1=O,percent Bodipy-positive cells,[2],7.17 ± 2.1%
O=C(O[C@H]1[C@H](Oc2ccccc2COC(=O)C2(O)C=CCCC2=O)O[C@H](CO)[C@@H](O)[C@@H]1O)c1ccccc1 (some centres undefined),percent Bodipy-positive cells,[2],16.9 ± 5.4%
CCC(C)[C@H](NC(=O)[C@H](CCCCN)NC(=O)[C@H](CCCCN)NC(=O)[C@H](C)NC(=O)[C@H](CC(C)C)NC(=O)[C@H](C)NC(=O)[C@H](C)NC(=O)[C@H](CC(C)C)NC(=O)[C@H](C)NC(=O)[C@H](CCCCN)NC(=O)[C@H](CC(C)C)NC(=O)[C@H](CC(N)=O)NC(=O)[C@@H](N)[C@@H](C)CC)C(=O)N[C@@H](CC(C)C)C(N)=O (some centres undefined) [Mastoparan],percent Bodipy-positive cells,library stock concentration: 3 mM,14.6 ± 6.6%
CC(Oc1ccc(O)cc1)(P(=O)(O)O)P(=O)(O)O,percent Bodipy-positive cells,[2],7.42 ± 2.2%
"C=C1C[C@@H](O)[C@H](/C=C/[C@@H](O)C(C)(C)CCCC)[C@H]1C/C=C\CCCC(=O)O [9-deoxy-9-methylene-16,16-dimethyl Prostaglandin E2]",percent Bodipy-positive cells,[3],23.7 ± 10%
CNCCC=C1c2ccccc2CCc2ccccc21.Cl,percent Bodipy-positive cells,[2],98.4 ± 1.4%
Cc1c(Cl)cccc1Nc1ccccc1C(=O)O [Tolfenamic acid],percent Bodipy-positive cells,,24.6 ± 3.8%
same,percent Bodipy-positive cells,library stock concentration: 7.6 mM,8.91 ± 2.2%
same,percent Bodipy-positive cells,[2],15.9 ± 2.9%
Cc1c(Cl)cccc1Nc1ccccc1C(=O)O [Tolfenamic Acid],percent Bodipy-positive cells,[1],9.68 ± 2.1%
same,percent Bodipy-positive cells,[2],14.7 ± 8.4%
CCCSc1ccc2[nH]c(NC(=O)OC)nc2c1 [Albendazole],percent Bodipy-positive cells,,39.84 ± 0.22%
same,percent Bodipy-positive cells,[1],20.9 ± 5.3%
same,percent Bodipy-positive cells,library stock concentration: 7.5 mM,36.3% and 16.3%
COc1cc(F)c(C(C)C)cc1-c1ccc(C(F)(F)F)cc1CN1C(=O)O[C@H](c2cc(C(F)(F)F)cc(C(F)(F)F)c2)[C@@H]1C [Anacetrapib (MK-0859)],percent Bodipy-positive cells,[1],5.81 ± 0.97%
same,percent Bodipy-positive cells,[2],10.1 ± 2.6%
CO[C@H]1/C=C/O[C@@]2(C)Oc3c(C)c(O)c4c(O)c(c(/C=N/N5CCN(C)CC5)c(O)c4c3C2=O)NC(=O)/C(C)=C\C=C\[C@H](C)[C@H](O)[C@@H](C)[C@@H](O)[C@@H](C)[C@H](OC(C)=O)[C@@H]1C [Rifampicin],percent Bodipy-positive cells,,23.1 ± 7.3%
CO[C@H]1/C=C/O[C@@]2(C)Oc3c(C)c(O)c4c(O)c(c(/C=N/N5CCN(C)CC5)c(O)c4c3C2=O)NC(=O)/C(C)=C\C=C\[C@H](C)[C@H](O)[C@@H](C)[C@@H](O)[C@@H](C)[C@H](OC(C)=O)[C@@H]1C,percent Bodipy-positive cells,[2],20.6 ± 6.2%
CO[C@H]1/C=C/O[C@@]2(C)Oc3c(C)c(O)c4c(O)c(c(/C=N/N5CCN(C)CC5)c(O)c4c3C2=O)NC(=O)/C(C)=C\C=C\[C@H](C)[C@H](O)[C@@H](C)[C@@H](O)[C@@H](C)[C@H](OC(C)=O)[C@@H]1C [Rifampin],percent Bodipy-positive cells,[1],8.14 ± 3.4%
same,percent Bodipy-positive cells,[2],13.1% and 10.1%
CC(C)NCC(O)c1ccc(O)c(O)c1 (racemic) [Isoproterenol HCl (rac)],percent Bodipy-positive cells,library stock concentration: 9.5 mM,8.59 ± 0.58%
Cc1n[nH]c2ccc(-c3cncc(OC[C@@H](N)Cc4ccccc4)c3)cc12,percent Bodipy-positive cells,[1],98.1 ± 1.4%
CC(C)(C)c1ccc(/C=C/C(=O)Nc2ccc3c(c2)OCCO3)cc1,percent Bodipy-positive cells,[2],32.2% and 9.83%
CC[n+]1c(/C=C/C=C2/N(C)c3ccccc3C2(C)C)sc2ccccc21,percent Bodipy-positive cells,[2],100%
CCc1ccc(CCOc2ccc(CC3SC(=O)NC3=O)cc2)nc1 (centres undefined) [Pioglitazone hydrochloride],percent Bodipy-positive cells,library stock concentration: 5.1 mM,14.9 ± 8.4%
same,percent Bodipy-positive cells,[2],44.8 ± 11%
